Values quoted from earlier work in patent publication US11185542B2, “Uses of dopamine beta-hydroxylase (DBH) inhibitors and serotonin receptor (5-HT) antagonists for the treatment of cancer” (Jiangsu Yahong Meditech Co., Ltd., priority 2016, dated 2021).
At least one compound was matched to its structure with a doubt left.

Tested on: newly diagnosed glioblastoma
Conditions: 500 mg of disulfiram, combination with temozolomide; cited from earlier work

## CCN(CC)C(=S)SSC(=S)N(CC)CC [disulfiram]
  median progression-free survival (PFS): 5.4 months
